# No constants are given. Whether binding was seen depends on the method and setting. Binding seen in cells or lysates may run through a third protein. Some results given as binding are weak or reduced against the parent protein; the word gives no strength. Sequences can lack the tags named with a protein.
# Experiments:
# Assay in all cases: co-IP; the beads of the VIP assay (EGFP-fused protein precipitated with GST-tagged anti-GFP Nb from HEK293T lysates) subjected to SDS-PAGE and immunoblotting with anti-mChe or anti-GFP antibody
# [1] = target: T1, EGFP-fused BROMI(1,102–1,298) (human) (UniProt Q96NH3)
# T1 sequence: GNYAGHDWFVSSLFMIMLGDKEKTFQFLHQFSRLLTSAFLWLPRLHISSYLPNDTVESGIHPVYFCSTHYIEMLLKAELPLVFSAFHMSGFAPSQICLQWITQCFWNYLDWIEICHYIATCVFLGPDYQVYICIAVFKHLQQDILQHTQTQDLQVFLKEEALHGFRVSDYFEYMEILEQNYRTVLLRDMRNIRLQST
# [2] = target: T2, EGFP-fused BROMI(157–1,298) (human) (UniProt Q96NH3)
# T2 sequence: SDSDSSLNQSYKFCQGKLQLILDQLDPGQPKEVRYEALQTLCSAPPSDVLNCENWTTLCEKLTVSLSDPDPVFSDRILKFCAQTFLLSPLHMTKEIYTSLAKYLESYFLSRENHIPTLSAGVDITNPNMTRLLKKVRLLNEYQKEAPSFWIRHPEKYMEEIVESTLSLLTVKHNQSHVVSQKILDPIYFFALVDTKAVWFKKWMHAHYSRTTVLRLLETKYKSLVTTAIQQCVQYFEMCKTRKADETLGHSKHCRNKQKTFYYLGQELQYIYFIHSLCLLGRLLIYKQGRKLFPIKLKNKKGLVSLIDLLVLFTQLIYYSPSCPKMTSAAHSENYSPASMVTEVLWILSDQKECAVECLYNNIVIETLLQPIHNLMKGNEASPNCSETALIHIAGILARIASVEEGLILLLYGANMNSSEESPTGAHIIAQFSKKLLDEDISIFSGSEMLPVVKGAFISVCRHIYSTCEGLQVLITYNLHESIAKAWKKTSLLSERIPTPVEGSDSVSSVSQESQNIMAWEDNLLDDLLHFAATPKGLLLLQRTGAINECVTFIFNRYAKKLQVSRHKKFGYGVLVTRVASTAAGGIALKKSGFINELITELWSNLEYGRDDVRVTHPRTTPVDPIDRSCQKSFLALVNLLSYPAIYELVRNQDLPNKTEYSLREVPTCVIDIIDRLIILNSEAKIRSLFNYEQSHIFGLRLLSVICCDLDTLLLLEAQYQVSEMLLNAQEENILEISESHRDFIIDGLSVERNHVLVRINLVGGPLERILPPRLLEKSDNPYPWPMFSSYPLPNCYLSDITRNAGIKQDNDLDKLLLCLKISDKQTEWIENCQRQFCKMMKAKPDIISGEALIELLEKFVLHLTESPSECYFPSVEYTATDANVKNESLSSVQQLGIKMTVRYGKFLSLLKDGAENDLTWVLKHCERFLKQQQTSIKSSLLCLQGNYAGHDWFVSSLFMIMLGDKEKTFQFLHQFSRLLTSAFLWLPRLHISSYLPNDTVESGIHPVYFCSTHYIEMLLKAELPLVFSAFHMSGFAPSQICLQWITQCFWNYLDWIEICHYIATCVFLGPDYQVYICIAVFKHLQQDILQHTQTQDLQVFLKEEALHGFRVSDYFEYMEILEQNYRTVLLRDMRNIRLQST
# [3] = target: T3, EGFP-fused BROMI(182–1,298) (human) (UniProt Q96NH3)
# T3 sequence: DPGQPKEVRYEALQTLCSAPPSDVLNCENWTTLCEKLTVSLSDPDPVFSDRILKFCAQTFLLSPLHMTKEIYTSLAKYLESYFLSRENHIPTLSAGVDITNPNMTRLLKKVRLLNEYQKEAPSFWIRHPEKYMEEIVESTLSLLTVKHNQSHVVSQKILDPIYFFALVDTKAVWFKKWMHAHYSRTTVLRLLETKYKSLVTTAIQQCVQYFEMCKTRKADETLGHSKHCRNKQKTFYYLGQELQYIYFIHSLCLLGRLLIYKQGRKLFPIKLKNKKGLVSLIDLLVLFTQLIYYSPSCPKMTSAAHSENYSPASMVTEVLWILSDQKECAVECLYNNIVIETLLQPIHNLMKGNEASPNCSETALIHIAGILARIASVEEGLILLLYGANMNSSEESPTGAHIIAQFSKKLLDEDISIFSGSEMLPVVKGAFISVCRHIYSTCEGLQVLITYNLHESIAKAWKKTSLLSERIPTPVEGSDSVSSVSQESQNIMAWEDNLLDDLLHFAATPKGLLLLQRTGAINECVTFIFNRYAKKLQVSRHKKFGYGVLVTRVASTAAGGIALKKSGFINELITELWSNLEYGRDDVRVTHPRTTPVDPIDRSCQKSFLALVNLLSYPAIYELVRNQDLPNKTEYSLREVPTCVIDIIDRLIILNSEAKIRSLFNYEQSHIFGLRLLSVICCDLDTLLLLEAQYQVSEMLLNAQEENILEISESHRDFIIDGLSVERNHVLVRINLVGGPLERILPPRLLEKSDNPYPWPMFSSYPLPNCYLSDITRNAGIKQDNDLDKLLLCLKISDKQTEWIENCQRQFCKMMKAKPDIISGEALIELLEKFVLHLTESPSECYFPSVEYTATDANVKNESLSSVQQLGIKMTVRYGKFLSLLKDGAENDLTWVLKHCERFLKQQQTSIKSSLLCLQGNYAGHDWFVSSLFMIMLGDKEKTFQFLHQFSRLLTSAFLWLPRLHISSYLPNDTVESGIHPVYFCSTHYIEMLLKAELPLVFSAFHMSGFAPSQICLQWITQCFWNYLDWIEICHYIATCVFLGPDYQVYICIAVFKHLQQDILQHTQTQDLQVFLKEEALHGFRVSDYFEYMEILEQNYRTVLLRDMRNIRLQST
substance,measurement,setting,value
CCRK-mChe (from UniProt Q8IZL9-1 1-346),binding,[1],no binding
same,binding,[2],binds
same,binding,[3],binds

# Reference: article PMC8500422
